In patent publication US20180364250A1 one finds binding data, which are given here for 1 molecule.

Protein sequences, listed by entry. Tags and fused reporters are not part of them. Lines headed by an entry give the natural chain unless they say otherwise; changes in a name come on top.
UniProt P0CG48: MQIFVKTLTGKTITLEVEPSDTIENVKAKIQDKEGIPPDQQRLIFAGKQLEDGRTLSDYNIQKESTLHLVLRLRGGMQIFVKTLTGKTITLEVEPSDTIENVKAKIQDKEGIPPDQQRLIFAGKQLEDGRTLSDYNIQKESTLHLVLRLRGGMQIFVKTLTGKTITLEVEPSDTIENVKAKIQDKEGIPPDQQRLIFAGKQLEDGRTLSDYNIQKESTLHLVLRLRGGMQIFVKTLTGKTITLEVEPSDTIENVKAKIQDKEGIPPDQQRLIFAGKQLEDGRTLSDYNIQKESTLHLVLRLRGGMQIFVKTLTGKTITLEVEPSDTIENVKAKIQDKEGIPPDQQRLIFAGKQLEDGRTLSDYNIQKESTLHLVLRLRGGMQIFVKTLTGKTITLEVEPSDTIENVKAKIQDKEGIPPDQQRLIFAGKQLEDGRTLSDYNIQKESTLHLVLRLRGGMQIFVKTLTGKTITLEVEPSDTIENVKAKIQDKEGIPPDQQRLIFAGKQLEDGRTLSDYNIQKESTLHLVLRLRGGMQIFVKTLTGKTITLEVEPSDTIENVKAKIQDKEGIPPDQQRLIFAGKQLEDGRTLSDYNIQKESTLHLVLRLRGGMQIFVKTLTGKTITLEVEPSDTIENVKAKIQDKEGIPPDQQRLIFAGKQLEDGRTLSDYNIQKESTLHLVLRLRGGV

These are yes or no findings as the source states them, for the method shown. Some binding calls cover weakened binding; strength is not graded here. Tags and fused reporters may be left off the sequences shown.

This assay has as its target Ubiquitin (free, untagged) (human) (UniProt P0CG48). In words: direct titration, relative fluorescence of 10 nM Alexa488 tSR.

B1: Alexa488-tagged tSR (designed binder)
chain: MPSSHHHHHHSSGLVPRGSHMTEEEQIAYAMQMSLREAGGGSDLLCKKGCGYYGNPAWQGFCSKCWREEAHKCAAERAAAE
modifications: Alexa488 fluorophore, attachment site not stated
Take B1: the binding result is listed as “binds”.
